Experimental data: patent publication US20240343799A1
Results are given in words; binding and its absence hold for the method and conditions named. Some binding calls cover weakened binding; strength is not graded here.

By UniProt entry, the sequences of proteins in these tests, tags left out. Where a name states a change or a piece, a line headed by the entry shows the natural chain unless it says otherwise. Residues count along the entry.
UniProt P40259: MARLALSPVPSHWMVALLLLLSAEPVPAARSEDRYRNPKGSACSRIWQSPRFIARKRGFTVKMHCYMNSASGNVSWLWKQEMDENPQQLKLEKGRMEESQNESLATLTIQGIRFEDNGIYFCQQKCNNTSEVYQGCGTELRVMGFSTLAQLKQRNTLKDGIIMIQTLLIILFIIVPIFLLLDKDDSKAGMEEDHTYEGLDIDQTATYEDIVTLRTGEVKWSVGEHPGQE
CD79b on the surface of B-cell non-Hodgkin's lymphoma cells: residues 29-229 of P40259
human CD79b (recombinant antigen in the ForteBio assays): residues 29-159 of P40259

B1: hz34F1.14 (antibody, V domains shown)
VH: QVQLVQSGAEVKKPGASVKVSCKASGYSFTTYWMNWVRQAPGQGLTWMGMIDPSDSETHYNHLFKDRVTMTVDKSTSTAYMELSSLRSEDTAVYYCTRAIGYWGQGTLVTVSS
VL: DVVMTQSPLSLPVTLGQPASISCKSSLSLLDSEGKTYLNWFQQRPGQSPRPLISLVSKLDSGVPDRFSGSGSGTDFTLKISRVEAEDVGVYYCWQGTHFPLTFGGGTKVEIK
B2: hz38D9B3.11 (antibody, V domains shown)
VH: QVQLVQSGSELKKPGASVKVSCKASGYTFTDYSMHWVRQAPGQGLEWMGWINTETGEPSYADDFKGRFVFSLDTSVSTAYLQISSLKAEDTAVYYCYYGPYWGQGTLVTVSS
VL: EIVLTQSPATLSLSPGERATLSCKASQSVDHDVDSYMDWYQQKPGQAPRLLIYSASNLESGIPARFSGSGSGTDFTLTISSLEPEDFAVYYCQQINEYPYTFGGGTKVEIK
B3: hz11G10.9.p1 (antibody, V domains shown)
VH: QVQLVQSGAEVKKPGASVKVSCKASGYTFTDYWVNWVRQAPGQGLEWMGMIDPSDSETHYNQMFNDRVTMTVDTSTSTVYMELSSLRSEDTAVYYCTRSNYYWGQGTLVTVSS
VL: DIVMTQTPLSLSVTPGQPASISCKSSQSLLDSEGKTYLNWLLQKPGQSPQSLIYLVSKLDSGVPDRFSGSGSGTDFTLKISRVEAEDVGVYYCWQGTHFPLTFGGGTKVEIK

Biological target: human CD79b (recombinant antigen in the ForteBio assays) (human) (UniProt P40259)
Test: BLI (ForteBio)

binding, binds:
B1
B2
B3

Biological target: CD79b on the surface of B-cell non-Hodgkin's lymphoma cells (human) (UniProt P40259)
Test: flow cytometry on BJAB cells, goat anti-human IgG PE

binding, binds:
B1
B2
B3

Biological target: CD79b on the surface of B-cell non-Hodgkin's lymphoma cells (human) (UniProt P40259)
Test: flow cytometry on Ramos cells, goat anti-human IgG PE

binding, binds:
B1
B2
B3
